These are yes or no findings as the source states them, for the method shown. In cells and extracts the contact can be indirect. Sequences can lack the tags named with a protein.
Biological target: T1, myc-ANXA1 (porcine (cDNA from PK15 cells)) (UniProt P19619)
T1 sequence: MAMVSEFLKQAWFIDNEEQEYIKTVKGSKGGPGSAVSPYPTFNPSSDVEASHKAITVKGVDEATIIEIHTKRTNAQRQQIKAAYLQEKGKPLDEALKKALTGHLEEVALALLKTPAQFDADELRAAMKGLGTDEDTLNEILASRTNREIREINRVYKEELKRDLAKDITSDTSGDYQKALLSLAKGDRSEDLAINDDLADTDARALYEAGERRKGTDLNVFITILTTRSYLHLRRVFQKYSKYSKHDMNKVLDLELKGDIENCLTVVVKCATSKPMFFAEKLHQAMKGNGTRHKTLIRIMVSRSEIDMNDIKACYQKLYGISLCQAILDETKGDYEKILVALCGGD
Assay: co-IP

With IRF3 the binding was “no binding”.

From paper PMC9215249
